Experimental data reported in patent US5157032A, “Mixed ligand complexes and uses thereof as binding agents and probes to DNA” (The Trustees of Columbia University In The City of New York, priority 1990, dated 1992).
Where “and” joins values, the source holds several entries; their conditions need not be identical. Identical values can stand only once.

Tests used:
[1] = Luminescence in solvents without DNA; assay type: physicochemical; conditions: for luminescence λmax: λirr 482 nm
CT DNA = test: Luminescence in presence of CT DNA; assay type: binding, calf; conditions: CT DNA 100 μM, buffer
Procedure: While a linear relationship of the luminescence is observed for Ru(bpy)2 (dppz)^2+ in iso-propanol as a function of temperature this is not the behavior seen when the complex is bound to DNA. When the complex, Ru(bpy)2 (dppz)^2+ is bound to cal-thymus (CT) DNA (100 μM) under low salt conditions at 25 ° C. a biexponential lifetime is observed. A short component which is assigned to a surface interaction, and a long component which is assigned to an intercalated species. As is shown in Table 1, the short component remains relatively unchanged until 70 ° C. when there is an abrupt decrease in the lifetime to 45 ns at 85° C. […] Under these conditions the CT DNA melts and the observed lifetimes of the complexes are similar to those lifetimes measured with single stranded DNA. […] In fact there is an abrupt decrease in the quantum yield at the melting temperature at this salt concentration. This decrease in quantum yield may be explained thus: when the complex is bound to the double stranded form the quenching ability of H2 O is inhibited while at the melting temperature the single stranded form of DNA cannot protect the complex from quenching of H2 O and therefore the observed luminescence is not as intense.

calf thymus DNA = test: Spectroscopic properties (absorption, emission, lifetime) on binding to calf thymus DNA; parameters: key to Emission λmax: b: Nonemissive complexes; conditions: for Absorption λmax bound / Emission λmax bound: bound to DNA; for Absorption Δλ / Emission Δλ: bound vs free; for Absorption λmax free / εfree / Emission λmax free / Emission Lifetime free: free complex; for Emission Lifetime free / Emission Lifetime bound, first component (1) / Emission Lifetime bound, second component (2): 20° C., air saturated; for Emission Lifetime bound, first component (1) / Emission Lifetime bound, second component (2): with DNA
Procedure: Instrumentation: NMR spectra were recorded on a Varian VXR-300MHz spectormeter. FABS were performed using a VG Analytical 7070EQ Mas Spectrometer (78), and elemental analyses were done by Galbraith Laboratories in Nashville, Tenn. UV-Visible absorbance spectal were recorded on a Varian CARY-219 absorbance spectorphotometer. Extinction coefficients for the compounds were determined versus ruthenium concentrations obtained by atomic absorption spectroscopy with known ruthenium standards. [Ru(bpy)3 ]Cl2 solutions were also employed for these determinations as an internal standard. A varian AA-875 atomic absorption spectrophotometer was used for these determinations.
Emission spectra were measured on a Perkin-Elmer LS-5 fluorescence spectrometer. The samples were excited at their corresponding isosbestic points. All the measurements were made at 20° C. in a thermostatted cuvette holder with 3 nm entrance slit and 10 nm exit slit. Ruthenium solutions employed were 7 μM in concentration and claf thymus DNA was added to a ration of 40:1 nucleotide/metal; ruthenuim-DNA soltuions were allowed to incubate for 15 minutes before enhanced spectra were recorded. The emission enhancement factors were measured by comparing the intensitites at the emission spectral mixima in the absence ad presence of DNA, under similar conditions.
The limunescence lifetime measurements were done on a PRA SPC (single photon countining) spectometer with some minor modifications. The samples were excited with a nitrogen filled tnynratron gated flash lamp and the data were collected using a Tracor Northern 1710 multichannel analyser. The data were then transferred to a PDP-11/03 computer and deconvoluted with PRA software. […] concentrated solution of DNA (5mM DNA-phosphate) in buffer was added to a solution of the metal complex (4 μM) in buffer and allowed to equilibrate. Lifetimes of the samples were measured 0.5 hr after the metal complexes were mixed with DNA. All measurements were made at 20° C. and under air saturated conditions.
Furthermore, for all the complexes, this electronic transition is perturbed on binding to DNA.

For `[Ru+2].c1ccc(-c2ccccn2)nc1.c1ccc(-c2ccccn2)nc1.c1ccc2nc3c4cccnc4c4ncccc4c3nc2c1` [Ru(bpy)2 (dppz)^2+], the “luminescent lifetime τ” value ([1]; CH3 OH, 25 °C) was 30 ns, the “luminescence λmax” value ([1]; acetonitrile) was 615 nm and the “luminescence λmax” value ([1]; ethanol) was 610 nm. For the same compound, the “luminescent lifetime τ” value ([1]; iso-propanol, 25 °C) was 209 ns and 210 ns, the “luminescent lifetime τ” value ([1]; iso-propanol, 35 °C) was 192 ns and the “luminescent lifetime τ” value ([1]; iso-propanol, 45 °C) was 174 ns. The “luminescent lifetime τ” value ([1]; iso-propanol, 55 °C) was 154 ns, the “luminescent lifetime τ” value ([1]; iso-propanol, 65 °C) was 129 ns and the “luminescent lifetime τ” value ([1]; iso-propanol, 75 °C) was 102 ns. The “intercept of lifetime vs temperature” value ([1]; isopropanol) was 267 ns, the “slope of lifetime decrease” value ([1]; isopropanol) was 2.1 nsdeg and the “decrease in the life with temperature” value ([1]; isopropanol, temperature increased) was 102 ns. The “luminescent lifetime τ, long component” value (CT DNA; 25 °C) was 259 ns, the “luminescent lifetime τ, short component” value (CT DNA; 25 °C) was 75 ns and the “luminescent lifetime τ, long component” value (CT DNA; 35 °C) was 232 ns. The “luminescent lifetime τ, short component” value (CT DNA; 35 °C) was 73 ns, the “luminescent lifetime τ, long component” value (CT DNA; 45 °C) was 232 ns and the “luminescent lifetime τ, short component” value (CT DNA; 45 °C) was 73 ns. For the same compound, the “luminescent lifetime τ, long component” value (CT DNA; 55 °C) was 204 ns, the “luminescent lifetime τ, short component” value (CT DNA; 55 °C) was 68 ns and the “luminescent lifetime τ, long component” value (CT DNA; 65 °C) was 189 ns. For the same compound, the “luminescent lifetime τ, short component” value (CT DNA; 65 °C) was 68 ns, the “luminescent lifetime τ, long component” value (CT DNA; 75 °C) was 144 ns and the “luminescent lifetime τ, short component” value (CT DNA; 75 °C) was 54 ns. For the same compound, the “luminescent lifetime τ, long component” value (CT DNA; 85 °C) was 118 ns and the “luminescent lifetime τ, short component” value (CT DNA; 85 °C) was 45 ns.

With `N=C1C(=N)c2ccccc2-c2ccccc21.[Ru+2].c1ccc(-c2ccccn2)nc1.c1ccc(-c2ccccn2)nc1` [Ru(bpy)2 (phi)^2+] the “Emission λmax” value (calf thymus DNA) was “b”, the “Absorption λmax bound” value (calf thymus DNA) was 548 nm and the “Absorption Δλ” value (calf thymus DNA) was 13 nm. For the same compound, the “Absorption λmax free” value (calf thymus DNA) was 535 nm and the εfree (calf thymus DNA) was 48,000 M-1 cm-1.

For `[Ru+2].c1ccc(-c2ccccn2)nc1.c1ccc(-c2ccccn2)nc1.c1ccc(-c2ccccn2)nc1` [Ru(bpy)3^2+, reference compound], the “Absorption λmax bound” value (calf thymus DNA) was 450 nm, the “Emission λmax bound” value (calf thymus DNA) was 618 nm and the “Absorption Δλ” value (calf thymus DNA) was 0 nm. For the same compound, the “Emission Δλ” value (calf thymus DNA) was 3 nm, the “Absorption λmax free” value (calf thymus DNA) was 450 nm and the “Emission λmax free” value (calf thymus DNA) was 615 nm. The εfree (calf thymus DNA) was 14,600 M-1 cm-1 and the “Emission Lifetime free” value (calf thymus DNA) was 420 nanoseconds.

In the case of `[Ru+2].c1ccc(-c2ccccn2)nc1.c1ccc(-c2ccccn2)nc1.c1cnc2c(c1)ccc1cccnc12` [Ru(bpy)2 (phen)^2+], the “Absorption λmax bound” value (calf thymus DNA) is reported as 452 nm, the “Emission λmax bound” value (calf thymus DNA) is reported as 602 nm and the “Absorption Δλ” value (calf thymus DNA) is reported as 0 nm. The “Emission Δλ” value (calf thymus DNA) was -9 nm, the “Absorption λmax free” value (calf thymus DNA) was 452 nm and the “Emission λmax free” value (calf thymus DNA) was 611 nm. The εfree (calf thymus DNA) was 16,000 M-1 cm-1, the “Emission Lifetime free” value (calf thymus DNA) was 450 nanoseconds and the “Emission Lifetime bound, first component (1)” value (calf thymus DNA) was 430 ± 30 nanoseconds. For the same compound, the “Emission Lifetime bound, second component (2)” value (calf thymus DNA) was 2100 ± 300 nanoseconds.

For `[Ru+2].c1ccc(-c2ccccn2)nc1.c1cnc2c(c1)ccc1cccnc12.c1cnc2c(c1)ccc1cccnc12` [Ru(phen)2 (bpy)^2+], the “Absorption λmax bound” value (calf thymus DNA) was 448 nm, the “Emission λmax bound” value (calf thymus DNA) was 604 nm and the “Absorption Δλ” value (calf thymus DNA) was 2 nm. The “Emission Δλ” value (calf thymus DNA) was -4 nm, the “Absorption λmax free” value (calf thymus DNA) was 446 nm and the “Emission λmax free” value (calf thymus DNA) was 608 nm. The εfree (calf thymus DNA) was 19,200 M-1 cm-1, the “Emission Lifetime free” value (calf thymus DNA) was 555 nanoseconds and the “Emission Lifetime bound, first component (1)” value (calf thymus DNA) was 530 ± 30 nanoseconds. The “Emission Lifetime bound, second component (2)” value (calf thymus DNA) was 2100 ± 260 nanoseconds.
